Experimental data published in patent US20200190176A1 (VERITAS THERAPEUTICS, published 2020).
These are yes or no findings as the source states them, for the method shown.

Tests used:
Assay in all cases: antigen microarray probed with 9D8 and a fluorescent secondary antibody, IgG reactivity as MFI
HSP 60 = target: HSP 60
snRNP A = target: snRNP A
snRNP C = target: snRNP C

B1: anti-FGL2 monoclonal antibody 9D8 (antibody, mouse IgG1, kappa, V domains shown)
VH: EVQLQQSGAELVKPGASVQLSCTASGFNIKDTYIHWVKQRPEQGLEWIGRIDPEDGNTKYDPKFQAKATITADTFSNTAYLQLSSLTSEDTAVYYCARSYGNAYWGQGTLVTVSA
VL: DIVLTQSPASLAVSLGQRATISCRASQSVSTSRYTYMHWYQQKPGQPPKLLIKYASNLDSGVPARFSGSGSGTDFTLNIHPVQEEDTATYYCQHSWEIWAFGGGTKLEIKR
notes: Mouse hybridoma antibody purified from ascites; isotype-matched control was IgG1; here built without leader from variable region plus constant region; also called clone 9D8; antibody to FGL2 (9D8)
How did the binding (HSP 60) turn out when B1 was run?
Its binding is “no binding (tested: 1 ug/ml (panel A); 1:1000 (panel B))”.

What about the binding (snRNP A) of the same binder?
The binding was “no binding (tested: 1 ug/ml (panel A); 1:1000 (panel B))”.

And the binding (snRNP C)?
The binding was “no binding (tested: 1 ug/ml (panel A); 1:1000 (panel B))”.
